# Laboratory results taken from patent US12390448B2, “Prevention or of disease states due to metal dis-homeostasis via administration of posiphen to healthy or sick humans” (ANNOVIS BIO, INC., priority 2017, dated 2025).
# For at least one compound, name, drawing or mass did not settle the structure.
# What was measured:
# huntingtin = test: Western blot of huntingtin in dividing human fibroblast cells; type: cell-based; details: human fibroblasts; 10 μM, 1 μM, 0.1 μM and 0.01 μM
# [1] = tested on: APP and its fragments (CTF-A, CTF-B, Abeta) and tau; test: APP, its fragments and tau in hippocampus of transgenic APP/PS1 AD animals; type: in vivo, mice
# [2] = tested on: hippocampal slices from APP/PSI mice; test: Long term potentiation (LTP) in hippocampal slices from APP/PS1 mice; type: in vivo; details: oral Posiphen, slices after euthanasia
# aSYN [3] = test: aSYN in SK-N-SH neuroblastoma cells; type: cell-based, human; details: 0.1 to 10 uM
# [4] = tested on: sAPPα, sAPPβ, t-tau, p-tau, inflammatory markers, Aβ42; details: MCI subjects; cited from earlier work
# [5] = tested on: APP and its fragments and tau; test: Neurotoxic aggregating proteins in cortex of transgenic APP/PS1 AD animals; type: in vivo, mice
# APPswe/PS1 mice = test: Radial water maze, spatial memory in APPswe/PS1 mice; type: in vivo; details: double transgenic (APPswe/PS1) mice
# transgenic aSYN mice = test: Gut motility / constipation in transgenic aSYN PD mice; type: in vivo
# htt [6] = test: Western blot of Htt in neurons differentiated from hESC; type: cell-based, human; details: stem cells differentiated into neurons, also prolonged exposure
# htt [7] = test: Western blot of htt in pluripotent human embryonic stem cells (hESC); type: cell-based
# APP [8] = details: SH-SY-5Y, 16 hours, concentration-dependent, plateau; cited from earlier work
# APP [9] = details: SK-N-SH; Posiphen 10 and 50 μM, phenserine 50 μM; 16 hours; cited from earlier work
# APP [10] = test: Western blot of APP in 3N Down syndrome nerve cells; type: cell-based; details: fully differentiated 3N DS nerve cells
# APP [11] = test: Western blot of APP in normal 2N nerve cells; type: cell-based; details: normal fully differentiated 2N nerve cells
# SNCA = details: cited from earlier work
# aggregated tau = test: Insoluble (aggregated) tau species in hippocampus of transgenic AD animals; type: in vivo, mice
# aSYN [12] = test: aSYN in cortex of transgenic PD mice; type: in vivo; details: PAC-Tg(SNCAA53T) mice; 5 mg/kg, 20 mg/kg, 35 mg/kg, and 50 mg/kg
# tau = test: Western blot of tau in SK-N-SH cells; type: cell-based, human; details: 50 μM for 12/24 hours
# Aβ40 = details: cited from earlier work
# IRP1 [13] = molecular target: T1, IRP1 (Homo sapiens, UniProt P21399); test: Microscale thermophoresis (MST) binding of IRE RNAs to IRP1; details: cell free recombinant system
# T1 sequence (P21399 1-889): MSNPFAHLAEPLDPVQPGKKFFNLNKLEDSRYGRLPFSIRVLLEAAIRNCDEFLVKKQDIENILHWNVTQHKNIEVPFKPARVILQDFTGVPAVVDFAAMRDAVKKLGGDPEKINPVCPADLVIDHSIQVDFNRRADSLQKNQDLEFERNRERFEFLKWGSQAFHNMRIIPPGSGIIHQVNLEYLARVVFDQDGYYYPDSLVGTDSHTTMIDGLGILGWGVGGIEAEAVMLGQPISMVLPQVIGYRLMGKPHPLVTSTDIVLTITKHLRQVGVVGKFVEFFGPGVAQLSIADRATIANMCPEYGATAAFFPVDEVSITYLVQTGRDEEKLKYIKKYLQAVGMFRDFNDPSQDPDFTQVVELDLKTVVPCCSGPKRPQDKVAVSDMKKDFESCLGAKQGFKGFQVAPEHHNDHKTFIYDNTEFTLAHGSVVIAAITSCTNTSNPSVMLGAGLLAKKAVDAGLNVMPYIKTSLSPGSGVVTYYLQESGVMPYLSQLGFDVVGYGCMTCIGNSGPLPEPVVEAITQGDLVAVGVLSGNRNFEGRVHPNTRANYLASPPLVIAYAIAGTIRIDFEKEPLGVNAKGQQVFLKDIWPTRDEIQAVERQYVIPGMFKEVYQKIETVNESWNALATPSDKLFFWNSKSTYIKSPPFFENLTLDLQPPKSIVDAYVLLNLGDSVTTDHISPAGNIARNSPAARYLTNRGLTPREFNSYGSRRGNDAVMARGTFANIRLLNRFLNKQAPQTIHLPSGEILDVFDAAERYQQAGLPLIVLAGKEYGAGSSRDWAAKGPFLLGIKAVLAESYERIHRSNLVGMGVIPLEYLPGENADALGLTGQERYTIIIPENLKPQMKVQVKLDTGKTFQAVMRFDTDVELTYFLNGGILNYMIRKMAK
# Description: Microscale thermophoresis (MST) binding experiments were done to assess binding in vitro between the different components. MST binding experiments were performed by incubating N-termini labeled protein (2 nM) with serial 2-fold dilutions of IRE RNAs, H-Ferritin ([…]) or APP ([…]) for 10 min in incubation buffer (Tris pH 7.4, 0.5%, 15 mM NaCl and 0.1% Prionex). IPR-1 was N-termini labeled with RED-NHS amino reactive labeling kit (NanoTemper Technologies, Germany). For determination of Posiphen binding, reactions containing IPR1 (2 nM), IRP1/H-Ferritin (2, 250 nM), or IRP1/APP (2, 600 nM) were incubated for 10 min with 2-fold dilutions of Posiphen tartrate. After incubation, samples were centrifuged at 13,000 rpm for 2 minutes before being loaded into standard capillaries provided by the manufacturer. Fluorescence values from the binding reactions were determined using the Monolith NT.115 (Nano Temper Technologies). Kd values were using the NanoTemper Technologies software. Conditions were standardized.
# anticholinesterase = details: cited from earlier work
# IRP1 [14] = molecular target: T1, IRP1; test: APP IRE binding to IRP1 under different conditions (with/without iron), FIG. 6
# APP [15] = test: Western blot of extracellular APP in SK-N-SH cells; type: cell-based, human; details: 50 μM, 12, 24 and 36 hours
# alpha-synuclein = test: Western blot of alpha-synuclein in Chinese hamster ovary cells (CHO); type: cell-based
compound,measurement,setting,value
"CN1CC[C@]2(C)c3cc(OC(=O)Nc4ccccc4)ccc3N(C)C12 (stereo partly drawn) [Posiphen, (3aR)-1,3a,8-trimethyl-1,2,3,3a,8,8a-hexahydropyrrolo[2,3-b]indol-5-ylphenylcarbamate]","huntingtin level, Western blot",huntingtin,inhibits huntingtin's in a dose dependent fashion
same,APP in hippocampus,[1],inhibits
same,Abeta in hippocampus,[1],inhibits
same,CTF-A in hippocampus,[1],inhibits
same,CTF-B in hippocampus,[1],inhibits
same,tau in hippocampus,[1],inhibits
same,long term potentiation in hippocampal slices,[2],fully recovers long term potentiation
same,aSYN level,aSYN [3],inhibited aSYN in a dose dependent fashion
same,CSF Aβ42,[4],trend to lower
same,CSF level of p-tau,[4],significantly lowered
same,CSF level of sAPPα,[4],significantly lowered
same,CSF level of sAPPβ,[4],significantly lowered
same,CSF level of specific inflammatory markers,[4],significantly lowered
same,CSF level of t-tau,[4],significantly lowered
same,"APP, its fragments and tau in cortex",[5],no Posiphen effect
same,"spatial memory, radial water maze",APPswe/PS1 mice,significantly improve (p=0.0033)
same,"constipation, A30P mutation animals","transgenic aSYN mice; 3 or 10 mg/kg IP daily from 6 to 28 weeks of age, FIG. 19",recovery from constipation
same,"constipation, A53T mutation animals",transgenic aSYN mice; FIG. 20,recovery from constipation
same,gut motility (colonic motility),"transgenic aSYN mice; transgenic aSYN mice, 3 or 10 mg/kg IP daily",significantly increased and normalized to the gut motility of normal animals
same,"Htt level, Western blot",htt [6],no effect on Htt
same,"htt level, Western blot",htt [7],inhibits htt in such cells in a dose dependent fashion
same,decline in intracellular APP levels,APP [8],approximately 50%
same,intracellular and secreted levels of APP,APP [9],reduced
same,"APP level, Western blot",APP [10],inhibits APP
same,"APP level, Western blot",APP [11],not in normal fully differentiated neurons
same,SNCA 5′UTR conferred translation,SNCA,repress
same,"SNCA expression in neural cells, Western blotting",SNCA,selectively blocked
same,SNCA inhibition in the presence of iron,SNCA,accelerated in the presence of iron
same,neural alpha-synuclein translation,SNCA,repressed
same,"aggregated tau in hippocampus, DA31 insoluble",aggregated tau; FIG. 18a,decrease
same,"aggregated tau in hippocampus, CP13 insoluble",aggregated tau; FIG. 18b,decrease
same,"aggregated tau in hippocampus, RZ3 insoluble",aggregated tau; FIG. 18c,decrease
same,"aggregated tau in hippocampus, PHF1 insoluble",aggregated tau; FIG. 18d,decrease
same,aSYN in cortex,aSYN [12],no effect in the cortex
same,"tau, Western blot bands",tau,very affected
same,Aβ40 levels in mouse cerebral cortex,Aβ40; 7.5 mg/kg,significantly lower
same,maximal drop of Aβ40 in mouse cerebral cortex,"Aβ40; higher doses, dose-dependent",40%
same,effect of Posiphen on binding of APP IRE to IRP1,IRP1 [13],no effect
same,anticholinesterase action,anticholinesterase,devoid of anticholinesterase action
same,increase of APP IRE binding to IRP1,IRP1 [14]; with addition of iron and Posiphen (curve D vs curve B),15 fold
same,biotin-APP IRE/IRP1 binding,"IRP1 [14]; without iron (B,C)",not affected
same,"extracellular APP, Western blot",APP [15],inhibits APP
same,"alpha-synuclein level, Western blot",alpha-synuclein,inhibits alpha-synuclein in a dose-dependent fashion
"CN1CC[C@@]2(C)c3cc(OC(=O)Nc4ccccc4)ccc3N(C)[C@@H]12 [Phenserine, (−)-N-phenylcarbamoyl eseroline, reference compound]",decline in intracellular APP levels,APP [8],approximately 50%
same,intracellular and secreted levels of APP,APP [9],reduced
